Data: paper PMC7326919
Results are given in words; binding and its absence hold for the method and conditions named. In cells and extracts the contact can be indirect. Some results given as binding are weak or reduced against the parent protein; the word gives no strength.

Chains of the proteins cited; added tags and fusions are not shown. Residues count along the entry.
UniProt Q9R0P9: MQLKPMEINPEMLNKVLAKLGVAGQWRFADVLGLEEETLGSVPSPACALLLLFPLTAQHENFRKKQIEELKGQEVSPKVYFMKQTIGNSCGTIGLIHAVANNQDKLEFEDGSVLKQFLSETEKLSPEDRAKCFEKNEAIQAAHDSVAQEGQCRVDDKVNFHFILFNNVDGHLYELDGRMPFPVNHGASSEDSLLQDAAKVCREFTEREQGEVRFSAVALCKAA
UniProt P20029, residues 20-655: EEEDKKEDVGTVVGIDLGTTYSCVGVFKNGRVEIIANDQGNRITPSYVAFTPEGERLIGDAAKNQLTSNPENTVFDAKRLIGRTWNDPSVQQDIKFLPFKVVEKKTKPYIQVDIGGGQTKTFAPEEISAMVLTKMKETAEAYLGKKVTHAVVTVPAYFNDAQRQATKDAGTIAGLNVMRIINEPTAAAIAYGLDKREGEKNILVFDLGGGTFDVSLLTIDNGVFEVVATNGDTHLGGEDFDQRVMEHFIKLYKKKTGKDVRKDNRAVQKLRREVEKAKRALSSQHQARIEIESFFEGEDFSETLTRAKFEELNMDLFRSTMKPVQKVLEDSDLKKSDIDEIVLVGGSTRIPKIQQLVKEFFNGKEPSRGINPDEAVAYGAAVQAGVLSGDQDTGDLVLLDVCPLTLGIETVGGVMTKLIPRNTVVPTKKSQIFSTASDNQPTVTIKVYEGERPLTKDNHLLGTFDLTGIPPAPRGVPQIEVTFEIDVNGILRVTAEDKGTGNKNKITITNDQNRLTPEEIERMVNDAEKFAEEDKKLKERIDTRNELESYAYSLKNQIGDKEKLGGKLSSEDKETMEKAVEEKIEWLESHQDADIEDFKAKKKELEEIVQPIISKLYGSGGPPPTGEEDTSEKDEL

Target: Ubiquitin C-terminal hydrolase L1 (mouse (endogenous in cardiac fibroblasts of C57BL/6 mice)) (UniProt Q9R0P9)
Test: co-IP; lysate of CFs stimulated with TGF-β1; rabbit UCHL1 antibody, rabbit GRP78 antibody or rabbit isotype control IgG overnight at 4 °C, protein A/G magnetic beads 4 h at 4 °C, washed three times with lysis buffer, western blot

binding: binds
Substance: glucose-regulated protein of 78 kDa (from UniProt P20029 20-655)
